From article PMC6925144, “A prospective compound screening contest identified broader inhibitors for Sirtuin 1” (Scientific Reports, 2019)
In all, about 3,200 compounds were measured (“TSA(without NAD+) / Primary screening (TSA) / delta Tm (K)”: median about -0.07, highest 2% from about 0.37 on). The list shows a part of the results.

Sequences of proteins named here, by UniProt entry; tags and fusion partners are left off. Residues count along the entry.
UniProt Q96EB6, 2-747 limits assumed: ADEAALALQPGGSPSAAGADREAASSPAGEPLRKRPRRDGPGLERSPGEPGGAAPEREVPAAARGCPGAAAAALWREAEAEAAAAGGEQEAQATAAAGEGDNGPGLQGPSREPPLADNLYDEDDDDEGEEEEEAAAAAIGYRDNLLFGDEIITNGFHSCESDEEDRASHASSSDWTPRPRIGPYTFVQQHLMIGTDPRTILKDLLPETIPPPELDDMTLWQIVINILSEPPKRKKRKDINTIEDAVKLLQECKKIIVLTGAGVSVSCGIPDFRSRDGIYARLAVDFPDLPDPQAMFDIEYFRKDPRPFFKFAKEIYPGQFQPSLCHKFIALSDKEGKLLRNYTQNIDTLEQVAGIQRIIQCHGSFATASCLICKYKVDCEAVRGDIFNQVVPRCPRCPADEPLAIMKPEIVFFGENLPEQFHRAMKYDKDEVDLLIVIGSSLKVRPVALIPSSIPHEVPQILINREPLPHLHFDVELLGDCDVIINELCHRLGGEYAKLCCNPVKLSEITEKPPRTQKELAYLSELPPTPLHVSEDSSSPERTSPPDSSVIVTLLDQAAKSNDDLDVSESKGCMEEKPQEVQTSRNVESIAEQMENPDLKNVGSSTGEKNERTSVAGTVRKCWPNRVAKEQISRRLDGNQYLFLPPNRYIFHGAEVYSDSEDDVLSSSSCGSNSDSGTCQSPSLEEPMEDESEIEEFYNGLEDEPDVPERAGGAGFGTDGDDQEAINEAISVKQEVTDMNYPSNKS

biological target: NAD-dependent deacetylase Sirtuin 1 (human, UniProt Q96EB6); assay: primary screen, delta tm; parameters: single well (n = 1); conditions: 10 µM
Procedure, shortened: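 Thermal shift of Sirtuin 1 measured without NAD+, compound at 10 µM (n = 1); value is ΔTm, with hits defined as ΔTm > 0.45 K or < −1.5 K. Hits retested at 5, 10, 20 µM (n = 4) and counterscreened on bovine carbonic anhydrase and ABL1 SH2 domain.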

Compound	TSA(without NAD+) / Primary screening (TSA) / delta Tm (K)
Cn1c(Cl)c(C=O)c2cc(C=O)ccc21	-0.12 K
Cc1ccc(N(C)S(=O)(=O)c2cccc(C(=O)Nc3c(C)cc(C)cc3Cl)c2)cc1	-0.08 K
Cc1ccc(N(C)S(=O)(=O)c2cccc(C(=O)Oc3ccc4c(C)cc(=O)oc4c3)c2)cc1	0.19 K
CNc1[nH]cnc2ncnc1-2	0.05 K
CCc1cccc(C)c1NC(=O)c1cccc(S(=O)(=O)N(C)c2ccc(C)cc2)c1	-0.15 K
N#Cc1cn(CCCOc2ccccc2)c2ccc(Cl)cc2c1=O	-0.01 K
O=C(c1ccc[nH]1)N1CCCC1c1ccc2c(c1)OCCCO2 (stereo not shown)	-0.12 K
COc1ccc(C(=O)Nc2ccccc2Oc2ccccc2)cc1OC	-0.03 K
CCCOc1ccc(C2C(C(=O)c3ccc(OC)cc3)=C(O)C(=O)N2CCCN2CCOCC2)cc1 (stereo not shown)	0.05 K
CCC(OC)C(=O)O (stereo not shown)	0.06 K
c1ccc(-c2nc(-c3cnn(-c4ccccc4)n3)[nH]c2-c2ccccc2)cc1	0.15 K
O=C(Nc1ccccc1Cc1ccccc1)c1ccc(CN2C(=O)CNC2=O)cc1	0.02 K
Cc1ccc(NC(=O)CN(C)S(=O)(=O)c2ccc3c(c2)CC(=O)N3C)cc1	0.08 K
Cc1sc2ncnc(N3CCC(C(=O)Nc4sc5c(c4C(N)=O)CCC(C)C5)CC3)c2c1C (stereo not shown)	-0.01 K
O=C(Cc1c[nH]c2ccccc12)NCc1ccc(-c2ccc(O)cc2)cc1	-0.07 K
CN(c1ccc2ccccc2c1)S(=O)(=O)c1cccc(C#N)c1	-0.18 K
COc1ccc2cc(/C=C/C(=O)Nc3ccc(C(N)=O)cc3)ccc2c1	0.36 K
CN(c1ccccc1)S(=O)(=O)c1cccc(C(=O)OCC(=O)Nc2ccc(C(N)=O)cc2)c1	0.13 K
COc1cccc(-n2ccnc2SC2CCCCNC2=O)c1 (stereo not shown)	0.06 K
COc1ccc(C(=O)C2=C(O)C(=O)N(CCCN3CCOCC3)C2c2ccccc2)cc1 (stereo not shown)	-0.12 K
Cc1cn2c3c(=O)[nH]c(=O)n(C)c3nc2n1CCCN1CCc2ccccc2C1	-0.22 K
OCCNc1ncnc2ccsc12	-0.13 K
COC(=O)c1ccc2[nH]cnc2c1	-0.21 K

Among those listed so far, two have a cyano group.
Compound	TSA(without NAD+) / Primary screening (TSA) / delta Tm (K)
N#Cc1cn(CCCOc2ccccc2)c2ccc(Cl)cc2c1=O	-0.01 K
CN(c1ccc2ccccc2c1)S(=O)(=O)c1cccc(C#N)c1	-0.18 K

Remaining list, next part

Compound	TSA(without NAD+) / Primary screening (TSA) / delta Tm (K)
OC1CCN(c2ncnc3ccsc23)CC1	-0.18 K
CN(c1cccnc1)S(=O)(=O)c1cnc2c(c1)c(=O)[nH]c(=O)n2C	-0.17 K
O=C1/C(=C\c2cc3ccccc3nc2N2CCOCC2)Oc2cc(O)ccc21	0.09 K
O=C(COC(=O)CN1C(=O)CSc2ccccc21)Nc1ccccc1SCc1ccccc1	0.07 K
COCc1c(C(=O)Nc2ccc(N3CCN(Cc4ccccc4)CC3)cc2)oc2ccccc12	-0.13 K
CCNC(=O)c1cccc(NC(=O)C2CCN(S(=O)(=O)c3cc(C(C)(C)C)ccc3C)CC2)c1	0.17 K
COc1ccc(Br)cc1/C=C1/Oc2cc(O)ccc2C1=O	-0.13 K
Cc1ccc(-c2cc(NC(=O)CSc3nnc(NCc4ccco4)s3)on2)cc1	0.08 K
COc1ccc(C2C(C(=O)c3ccc(C)cc3)=C(O)C(=O)N2CCCN2CCOCC2)cc1 (stereo not shown)	-0.17 K
CN(c1ccccc1)S(=O)(=O)c1cccc(C(=O)NCCc2c[nH]c3ccccc23)c1	0.16 K
CCCCC(CNC(=O)OC(C)(C)C)NC(=O)CCCc1nc2ccccc2c(=O)[nH]1 (stereo not shown)	-0.14 K
CCOc1cccc(/C=C2/Oc3cc(O)ccc3C2=O)c1OC	-0.02 K
NC(=O)CC1CCN(C(=O)c2ccn(-c3cccc(Cl)c3)n2)CC1	-0.03 K
COc1ccc(-n2c(SCc3ccc([N+](=O)[O-])cc3)nnc2-c2ccccc2OC)cc1	-0.08 K
O=C(CN1CCOCC1)N1CCNCC1	-0.21 K
O=C(Nc1cnc2ccccc2c1)C(=O)N1CCC(Oc2ccccc2)CC1	0.07 K
CCS(=O)(=O)N1CCN(c2ccc(C(N)=O)cc2)CC1	-0.15 K
Cc1csc(N2CCN(c3cc(=O)n4ccccc4n3)CC2)n1	-0.05 K
CCCCn1c(N)c(N(CCOC)C(=O)c2cccc(S(=O)(=O)N(C)c3ccccc3)c2)c(=O)[nH]c1=O	-0.12 K
CN(c1cccc(Cl)c1)S(=O)(=O)c1cccc(C(=O)Nc2cc(C(N)=O)cc(C(N)=O)c2)c1	0.15 K
COc1cccc2c1OCC(Nc1cc(-c3nc(C)no3)ccn1)C2 (stereo not shown)	0.08 K
O=C(COC(=O)c1ccc(-n2cccc2)cc1)Nc1ccccc1Cc1ccccc1	-0.12 K
CC(C)C(=O)NN	-0.03 K
